Taken from: PubChem BioAssay AID1259254 (NCATS, 2017)

Screen: 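Finding genes that stop cells copying their DNA twice in one cycle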 (primary screen)
Cells: human HCT116 colorectal cancer cells
Reagent: single siRNA against human genes
Time to read-out: 3 days
Measured: 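Imaged Hoechst DNA stain sorts each cell into a cycle phase by DNA amount; per plate, G2 fraction set to 0% for non-targeting and 100% for GMNN siRNA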
Scale: G2 robust z-score and G2 cells, % of GMNN control: higher = more G2 cells, more excess DNA replication
Active means: 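An siRNA counts as active if its G2 robust z-score lies at least 5 MADs above the screen median; here such calls match roughly 38% of GMNN control or more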
The whole screen tested about 59,000 reagents; this is an unselected part. Of all reagents, about 1,550 (2.6%) were called active. 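G2 share is only a proxy for re-replication; each gene was hit by three separate siRNAs, and active genes were retested.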 Unmarked entries are inactive. Reagents against one gene are numbered here. Further read-outs or replicates are left out here. Reagent sequences are not shown. Not given: the amount of reagent.

BSN #1
- G2 robust z-score: 0.0896
- G2 cells, % of GMNN control: 3.6

BSN #2
- G2 robust z-score: -1.31
- G2 cells, % of GMNN control: -6.22

BSN #3
- G2 robust z-score: 0.0572
- G2 cells, % of GMNN control: 3.37

CNPY4 #1
- G2 robust z-score: -0.363
- G2 cells, % of GMNN control: 0.41

CNPY4 #2
- G2 robust z-score: -0.0729
- G2 cells, % of GMNN control: 2.45

CNPY4 #3
- G2 robust z-score: 5.35 (active)
- G2 cells, % of GMNN control: 40.6

EPSTI1 #1
- G2 robust z-score: 2.98
- G2 cells, % of GMNN control: 23.9

EPSTI1 #2
- G2 robust z-score: -0.745
- G2 cells, % of GMNN control: -2.27

EPSTI1 #3
- G2 robust z-score: -0.67
- G2 cells, % of GMNN control: -1.75

ATP6V1G3 #1
- G2 robust z-score: 0.703
- G2 cells, % of GMNN control: 7.91

ATP6V1G3 #2
- G2 robust z-score: 0.201
- G2 cells, % of GMNN control: 4.38

ATP6V1G3 #3
- G2 robust z-score: 0.419
- G2 cells, % of GMNN control: 5.92

3 entries already listed, ordered by “G2 cells, % of GMNN control”, lowest first:
EPSTI1 #2
- G2 robust z-score: -0.745
- G2 cells, % of GMNN control: -2.27

EPSTI1 #3
- G2 robust z-score: -0.67
- G2 cells, % of GMNN control: -1.75

ATP6V1G3 #1
- G2 robust z-score: 0.703
- G2 cells, % of GMNN control: 7.91

The results go on:
FAM8A1 #1
- G2 robust z-score: -1.73
- G2 cells, % of GMNN control: -9.17

FAM8A1 #2
- G2 robust z-score: 0.231
- G2 cells, % of GMNN control: 4.6

FAM8A1 #3
- G2 robust z-score: 0.481
- G2 cells, % of GMNN control: 6.35

ACP4 #1
- G2 robust z-score: -0.157
- G2 cells, % of GMNN control: 1.87

ACP4 #2
- G2 robust z-score: -0.536
- G2 cells, % of GMNN control: -0.802

ACP4 #3
- G2 robust z-score: -0.693
- G2 cells, % of GMNN control: -1.91

ATP6V1E1 #1
- G2 robust z-score: -0.347
- G2 cells, % of GMNN control: 0.525

ATP6V1E1 #2
- G2 robust z-score: 0.616
- G2 cells, % of GMNN control: 7.3

ATP6V1E1 #3
- G2 robust z-score: -0.503
- G2 cells, % of GMNN control: -0.57

FNDC8 #1
- G2 robust z-score: 5 (active)
- G2 cells, % of GMNN control: 38.1

FNDC8 #2
- G2 robust z-score: -0.0131
- G2 cells, % of GMNN control: 2.87

FNDC8 #3
- G2 robust z-score: -0.839
- G2 cells, % of GMNN control: -2.94
